Data source: PubChem BioAssay AID686943 (Drosophila RNAi Screening Center, 2013)
The screen tested about 23,000 reagents; shown is a random part of those that have a named target and a result. 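Extra replicates exist only for a retested subset of genes; insulin dose and duration not given; both raised and lowered dpERK matter.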 Names joined by + are all predicted targets of the reagent. No sequences are given here. Not given: the amount of reagent, the time to read-out.

Screen: 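Knockdowns that increase or decrease active ERK after insulin receptor stimulation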 (primary screen)
System: Drosophila S2R+ haemocyte-like cells expressing YFP-tagged ERK (Rolled)
Reagent: long dsRNA against Drosophila genes
Treatment: insulin stimulation versus unstimulated cells; dose and duration not given
Detection: 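Antibody staining for doubly phosphorylated ERK divided by ERK-YFP signal, as plate z-scores, in insulin-treated and untreated cells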
Scale: replicate 1, z-score of dpERK with insulin and replicate 2, z-score of dpERK with insulin: higher = more active ERK per ERK-YFP after insulin; replicate 1, z-score of dpERK under basal conditions: higher = more basal active ERK per ERK-YFP; replicate 1, z-score of ERK-YFP with insulin: higher = more YFP-tagged ERK signal

no.	gene	dsRNA	replicate 1, z-score of dpERK with insulin	replicate 2, z-score of dpERK with insulin	replicate 1, z-score of dpERK under basal conditions	replicate 1, z-score of ERK-YFP with insulin
1	CG12831	DRSC06179	0.62	-0.37	-0.17	-0.57
2	CG17030	DRSC08503	0.41	0.33	-0.03	0.31
3	CG11889 + CG11891	DRSC14426	0.2	-0.07	1.53	0.14
4	CG11889 + CG11891	DRSC14427	0.19	0.26	0.53	0.79
5	CG3097	DRSC18275	-0.16	-0.24	1.39	-0.13
6	Cpr11A	DRSC19861	0.86	0.02	-0.09	0.15
7	Vmat	DRSC06961	0.01	0.17	0.25	0.54
8	Vmat	DRSC06962	-0.08	-0.28	-0.47	0.49
9	Vmat	DRSC22223	-0.69	-0.93	-1.1	2.42
10	GILT2	DRSC14196	0.06	0.29	-0.01	-0.48
11	lqf	DRSC11363	0.14	0.27	0.35	0.01
12	reb	DRSC06308	0.28	0.54	-0.55	0.05
13	CG5348	DRSC06933	0.44	-0.32	0.71	0.11
14	strat	DRSC03069	0.16	0.5	0.45	0.09
15	inaD	DRSC04694	0.36	-0.02	0.84	0.47
16	CG42404	DRSC15558	-1.1	-1.81	0.89	0.54
17	Fife	DRSC08262	-0.76	-1.38	-0.22	1.95
18	Fife	DRSC08409	-0.91	-0.44	-0.64	-0.01
19	Fife	DRSC08499	1.23	0.19	-0.12	-0.39
20	CG13795	DRSC02299	1.33	-0.17	-0.85	0.75
21	ms(3)K81	DRSC14746	1.32	-0.06	1.77	-0.12
22	CG14244	DRSC14739	-0.25	-0.14	-0.53	-0.33
23	wg	DRSC03636	-0.01	0.16	-0.13	0.96
24	nw	DRSC06451	-0.99	-0.68	0.31	0.83
25	nw	DRSC06749	0.09	0.64	0.39	0.65
26	nw	DRSC06896	-1.06	-0.34	-0.78	0.63
27	ste24a	DRSC07314	0.42	0.79	0.44	0.13
28	Gr64b + Gr64c	DRSC08444	0.37	0.17	-0.33	0.18
29	Gr64b + Gr64c	DRSC08445	-0.04	0.11	-0.46	0.76
30	CG15022	DRSC08476	-2.81	-1.55	0.73	1.55
31	IleRS	DRSC11667	0.27	0.53	0.18	-0.24
32	Cpr67Fb	DRSC10314	-0.29	-0.01	0.13	0.81
33	Eno	DRSC00750	0.76	1.49	0.64	0.37
34	qtc	DRSC02364	-0.59	0	0.19	0.69
35	qtc	DRSC02365	-0.27	-0.34	-0.17	0.22
36	CG5466	DRSC15808	-3.54	-3.51	-1.75	-0.92
37	Pmvk	DRSC02032	0.61	0.26	1.51	-0.31
38	Ser	DRSC16856	0.37	-0.18	-0.5	0.13
39	CG1236	DRSC12203	-0.35	-0.45	-0.3	1.08

Entries listed so far whose target name begins with I or i (2):
gene	dsRNA	replicate 1, z-score of dpERK with insulin	replicate 2, z-score of dpERK with insulin	replicate 1, z-score of dpERK under basal conditions	replicate 1, z-score of ERK-YFP with insulin
inaD	DRSC04694	0.36	-0.02	0.84	0.47
IleRS	DRSC11667	0.27	0.53	0.18	-0.24

The listing continues:
no.	gene	dsRNA	replicate 1, z-score of dpERK with insulin	replicate 2, z-score of dpERK with insulin	replicate 1, z-score of dpERK under basal conditions	replicate 1, z-score of ERK-YFP with insulin
40	CG6481	DRSC19995	0.55	-1	-0.58	-0.49
41	Prat2	DRSC09692	0.78	0.5	-0.51	0.34
42	LeuRS	DRSC00581	1.53	0.59	-0.84	-0.36
43	ova	DRSC02879	-0.08	-0.57	3.16	0.63
44	Kpc1	DRSC16107	0.49	0.1	-0.72	-1.71
45	wbl	DRSC07718	-1.48	-0.8	-0.72	0.23
46	CG17776	DRSC18136	-0.08	0	0.44	0.39
47	sloth2 + sloth1	DRSC17922	0.26	0.13	-0.27	0.04
48	sloth2 + sloth1	DRSC17923	0.6	0.75	1.23	-0.02
49	CG9733	DRSC16549	-0.55	0.21	0.41	-0.19
50	lok	DRSC03567	-1.14	-0.65	1.21	0.49
51	CG14787	DRSC18606	0.3	0.73	0.11	-0.85
52	Lcp65Ae	DRSC11212	-0.58	-0.94	0.3	-0.17
53	CG11843	DRSC14401	-0.55	0	-0.93	-0.07
54	GstE1	DRSC07437	-0.09	-0.26	-0.72	0.2
55	Ccp84Ae	DRSC12590	0.13	-0.07	-0.27	-0.04
56	CG11089 + CG31381	DRSC13690	0.63	0.03	1	0.94
57	CG11089 + CG31381	DRSC14290	-0.2	0.67	0.07	-0.24
58	CG9922	DRSC16579	0.03	-0.22	-2.24	-0.65
59	Meics	DRSC11413	-1.08	-1.33	-0.96	-0.08
60	NKCC	DRSC12140	-0.76	0.43	0.25	-0.98
61	NKCC	DRSC12311	-0.04	0.85	0.42	-0.06
62	Cpes	DRSC04475	0.96	-0.22	-0.66	-3
63	Taf5	DRSC07562	0.82	0.84	-2.19	1.02
64	CG14186	DRSC10185	0.68	0.57	-0.07	0.46
65	hbs	DRSC07627	0.83	0.04	0.72	0.09
66	CG8173	DRSC20088	-0.98	0.06	-0.24	0.53
67	CG12020	DRSC08226	-0.14	-0.41	1.55	0.74
68	Wdr37	DRSC14500	0.97	-0.24	0.18	-0.44
69	ko	DRSC11893	0.41	0.46	0.28	0.19
70	UGP	DRSC10411	0.48	0.14	-1.54	-0.26
71	bai	DRSC14388	0.44	0	0.24	0.04
72	CG42241 (retired record)	DRSC04007	-0.01	-0.35	0.19	-0.27
73	Elba2	DRSC00731	-0.45	0.49	0.27	0.22
